Assay results: PubChem BioAssay AID445 (National Center for Advancing Translational Sciences (NCATS), 2006)
Values joined by “and” are separate entries in the source; they are usually repeats but may differ in a detail not shown here. Identical values can stand only once. Some of the results follow. Further columns of the screen follow, without active or inactive calls. Most of these compounds were active or inconclusive in the main read-out, so they are no random draw. Potencies come from curve fits of mixed quality, noted in brackets.

Assay: IkB Signaling
Conditions: ABC-DLBCL IkBa-CBG/CBR dual luciferase ratio (green luciferase fused to IkBa over red control in OCI-Ly3 lymphoma cells), 4 h
Outline: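 Curves were fitted separately to fusion (green), unfused (red) and ratio luminescence, then classed by r2, magnitude and activity. Cells: OCI-Ly3, 4 h compound plus doxycycline at 37C; 10 uM MG-132 defined full response.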

[1] = measured here: control luc red channel unless noted
[2] = measured here: IkB-luc green channel
[3] = measured here: control luc red channel

**Q.** For `COc1ccc(CNC2CC(=O)N(C)C2=O)cc1` (centres undefined), which AC50 [1] is on record?
**A.** Its AC50 is 39.8 µM [rising, single point].

**Q.** Which AC50 [1] does the source give for `Cc1cn2c(=O)cc(COC(=O)c3cccc(NC(=O)COc4ccccc4)c3)nc2s1` here?
**A.** Its AC50 is 0.126 µM [falling, full curve].

**Q.** For `Cc1cc(C)n2nc(-c3ccc(Cl)cc3)nc2n1`, which AC50 [1] is on record?
**A.** Its AC50 is 6.31 µM [rising, single point].

**Q.** With `Cc1cccc(N2CCN(c3nc4ccc(C(=O)c5ccccc5)cc4n4cnnc34)CC2C)c1` (centres undefined) as the compound, how does the AC50 [1] read?
**A.** The AC50 was 20 µM [falling, partial curve, poor fit].

**Q.** With `O=C1c2c(O)ccc(O)c2C(=O)c2c(NCCNCCO)ccc(NCCNCCO)c21` as the compound, how does the AC50 [2] read?
**A.** Its AC50 is 5.01 µM [falling, partial curve].

**Q.** And the AC50 [3]?
**A.** Its AC50 is 10 µM [falling, partial curve] and 3.98 µM [falling, partial curve].

**Q.** Which AC50 [1] does the source give for `Cc1ccc2c(CC(=O)N3CCN(c4cccc(Cl)c4)CC3)coc2c1C` here?
**A.** The AC50 was 25.1 µM [falling, partial curve].

**Q.** Which results are given for `CCc1nnc(NC(=O)CCC(=O)Nc2ccccc2)s1`?
**A.** AC50 [2]: 31.6 µM [rising, single point]; AC50 [3]: 20 µM [rising, partial curve]

**Q.** Which AC50 [1] does the source give for `Cc1cc(N2CCN(S(=O)(=O)c3ccccc3)CC2)c2ccccc2n1` here?
**A.** Its AC50 is 7.94 µM [falling, partial curve].

**Q.** With `COC(=O)CN1C(=O)CSc2ccc(S(=O)(=O)Nc3ccccc3)cc21` as the compound, how does the AC50 [1] read?
**A.** The AC50 was 39.8 µM [falling, single point].

**Q.** With `CN1CCN(S(=O)(=O)c2ccc(SCCOc3ccccc3)nc2)CC1` as the compound, how does the AC50 [1] read?
**A.** Its AC50 is 25.1 µM [falling, single point].

**Q.** For `COC(=O)c1ccc(Nc2nc(-c3ccc(C)cc3)nc3ccccc23)cc1`, which AC50 [1] is on record?
**A.** Its AC50 is 20 µM [falling, partial curve].

**Q.** For `COc1ccc(CNc2nc3c(c(=O)n(Cc4ccc(F)cc4)c(=O)n3C)n2C)cc1`, which AC50 [1] is on record?
**A.** Its AC50 is 6.31 µM [falling, partial curve].

**Q.** For `CC(=O)N1CCc2c(sc3c2c(=O)n(Cc2ccccc2)c(=O)n3Cc2cccc(Cl)c2)C1`, which AC50 [1] is on record?
**A.** Its AC50 is 31.6 µM [falling, single point].

**Q.** Which AC50 [1] does the source give for `Cc1ccccc1Cn1cnc2c(oc3ccccc32)c1=O` here?
**A.** Its AC50 is 0.501 µM [rising, full curve, poor fit].

**Q.** With `CC1=Nc2cc(C(=O)NC3CCC(C)CC3)ccc2Sc2c(C)ccc(C)c21` (centres undefined) as the compound, how does the AC50 [1] read?
**A.** The AC50 was 1 µM [rising, full curve].

**Q.** With `COc1cc(C(=O)N2CCc3c([nH]c4ccccc34)C2c2ccc(F)cc2)cc(OC)c1OC` (centres undefined) as the compound, how does the AC50 [1] read?
**A.** Its AC50 is 12.6 µM [falling, partial curve].

**Q.** With `O=C(Nc1ccc(NC(=O)C2CC2)nc1)c1ccccn1` as the compound, how does the AC50 [1] read?
**A.** Its AC50 is 10 µM [falling, partial curve].

**Q.** With `Cc1ccc(-n2nc(C(=O)NCc3ccc(F)cc3Cl)c3c4ccccc4n(C)c3c2=O)cc1` as the compound, how does the AC50 [1] read?
**A.** Its AC50 is 0.251 µM [rising, full curve, poor fit].

**Q.** Which AC50 [1] does the source give for `CCc1ccc(-c2nc3cc(NC(=O)c4cc5ccccc5cc4OC)ccc3o2)cc1` here?
**A.** Its AC50 is 3.98 µM [falling, partial curve].

**Q.** Which AC50 [1] does the source give for `COc1ccc(Br)c(C(=O)Nc2cc3c(cc2N2CCCCC2)n(C)c(=O)c(=O)n3C)c1` here?
**A.** The AC50 was 25.1 µM [falling, single point].

**Q.** For `COc1cc(C2CC(=O)N(Cc3ccc(F)cc3)c3ccccc3S2)cc(OC)c1OC` (centres undefined), which AC50 [1] is on record?
**A.** Its AC50 is 0.251 µM [falling, full curve, poor fit].

**Q.** With `COC(=O)c1ccccc1NC(=O)c1nc(S(=O)(=O)Cc2cccc(C)c2)ncc1Cl` as the compound, how does the AC50 [1] read?
**A.** The AC50 was 7.94 µM [falling, partial curve].

**Q.** For `Cc1cccc(NC(=O)c2c(C)cc(C)nc2SCC(=O)Nc2c(C)cc(C)cc2C)c1`, which AC50 [1] is on record?
**A.** Its AC50 is 10 µM [falling, partial curve].

**Q.** With `OC(CN(c1ccccc1)c1ccccc1)Cn1cnc2ccccc21` (centres undefined) as the compound, how does the AC50 [1] read?
**A.** The AC50 was 12.6 µM [falling, partial curve].

**Q.** Which AC50 [1] does the source give for `Cn1c(=O)oc2cc(S(=O)(=O)N3CCC(C(=O)NCc4ccc(F)cc4)CC3)ccc21` here?
**A.** The AC50 was 3.98 µM [falling, partial curve].

**Q.** Which AC50 [1] does the source give for `CCNC(=O)NC(=O)COC(=O)CCCSc1nc2ccccc2[nH]1` here?
**A.** Its AC50 is 7.94 µM [falling, partial curve].

**Q.** With `O=C(Nc1nnc(S(=O)(=O)N2CCCC2)s1)c1ccccc1Br` as the compound, how does the AC50 [1] read?
**A.** The AC50 was 15.8 µM [falling, single point].

**Q.** For `CCOC(=O)c1ccc(NC(=O)CSc2nnc(CNC(=O)c3ccc(OC)cc3)n2CC)cc1`, which AC50 [1] is on record?
**A.** The AC50 was 39.8 µM [falling, single point].

**Q.** With `COc1ccc(NC(=O)CC2C(=O)N(c3ccc(C)cc3)C(=O)N2Cc2ccc3c(c2)OCO3)cc1` (centres undefined) as the compound, how does the AC50 [1] read?
**A.** Its AC50 is 7.94 µM [falling, single point].

**Q.** For `COc1ccc(N2CCN(S(=O)(=O)c3ccc4c(c3)CCCN4C(C)=O)CC2)cc1`, which AC50 [1] is on record?
**A.** The AC50 was 15.8 µM [falling, partial curve, poor fit].

**Q.** Which AC50 [1] does the source give for `CCC(C)n1c(SCc2c(F)cccc2Cl)nc2ccsc2c1=O` (centres undefined) here?
**A.** The AC50 was 25.1 µM [falling, single point].

**Q.** With `COc1cc(N2C(=O)CSC23C(=O)N(Cc2ccc(C)cc2)c2ccccc23)cc(OC)c1OC` (centres undefined) as the compound, how does the AC50 [1] read?
**A.** Its AC50 is 25.1 µM [falling, single point].

**Q.** For `Cc1ccc(C)c(CN2C(=O)c3ccccc3S(=O)c3ccc(C(=O)N4CCN(c5ccccc5F)CC4)cc32)c1` (centres undefined), which AC50 [1] is on record?
**A.** Its AC50 is 20 µM [falling, partial curve].

**Q.** For `CC(C)(C)OC(=O)N1CCC(c2c(C(=O)NCCCN3CCc4ccccc4C3)cnn2-c2ccccc2)CC1`, which AC50 [1] is on record?
**A.** Its AC50 is 20 µM [falling, partial curve].

**Q.** Which AC50 [1] does the source give for `COc1ccc(-c2c(C)c3cc(OC(=O)N4CCOCC4)ccc3oc2=O)cc1` here?
**A.** Its AC50 is 6.31 µM [falling, single point].

**Q.** With `O=C(Nc1nc2ccc(Cl)cc2s1)c1ccc(Br)o1` as the compound, how does the AC50 [1] read?
**A.** The AC50 was 1.58 µM [falling, full curve].

**Q.** Which AC50 [1] does the source give for `O=C(Cn1cc(SCc2ccccc2)c2ccccc21)N1CCCCC1` here?
**A.** The AC50 was 25.1 µM [falling, single point].

**Q.** Which AC50 [1] does the source give for `CCc1ccc(CNC(=O)CN(c2ccc(C)cc2)S(=O)(=O)N(C)C)cc1` here?
**A.** Its AC50 is 12.6 µM [falling, single point].

**Q.** Which AC50 [1] does the source give for `N#Cc1c(-n2ncnc2-c2ccc(Br)cc2)sc2c1CCCCC2` here?
**A.** Its AC50 is 0.251 µM [falling, full curve].

**Q.** With `CSc1ccc(CNC(=O)C2CCN(c3nnc(-n4cccc4CNc4ccc(C)cc4)s3)CC2)cc1` as the compound, how does the AC50 [1] read?
**A.** Its AC50 is 0.0316 µM [falling, full curve, poor fit].

**Q.** With `CCOC(=O)c1c(NC(=O)CSc2n[nH]c(-c3ccco3)n2)sc(C)c1C` as the compound, how does the AC50 [1] read?
**A.** The AC50 was 25.1 µM [falling, single point].

**Q.** With `O=c1oc(-c2cccs2)nc2c1cnn2-c1ccccc1` as the compound, how does the AC50 [1] read?
**A.** The AC50 was 7.94 µM [falling, full curve, poor fit].

**Q.** With `O=C(COc1ccc([N+](=O)[O-])cc1)NCC1(N2CCOCC2)CCCCC1` as the compound, how does the AC50 [1] read?
**A.** Its AC50 is 1.26 µM [falling, partial curve].

**Q.** Which AC50 [1] does the source give for `Cc1cnc(CNc2ncnc3ccc(-c4c(C)noc4C)cc23)cn1` here?
**A.** The AC50 was 5.01 µM [rising, partial curve] [measured here: IkB-luc green channel].

**Q.** Which results are given for `O=C(NCc1ccco1)C1CCCN(S(=O)(=O)c2cccc3nonc23)C1` (centres undefined)?
**A.** AC50 [2]: 15.8 µM [rising, partial curve]; AC50 [3]: 15.8 µM [falling, partial curve]

**Q.** With `CC(C)CC(=O)Nc1ccc(S(=O)(=O)Nc2cc3c(cc2N2CCOCC2)n(C)c(=O)c(=O)n3C)cc1` as the compound, how does the AC50 [1] read?
**A.** The AC50 was 31.6 µM [falling, single point].

**Q.** With `O=C(CCc1cn(Cc2ccccc2Cl)c2ccccc12)NC1CCCCC1` as the compound, how does the AC50 [1] read?
**A.** The AC50 was 2.51 µM [falling, full curve].

**Q.** For `CC(C)c1ccc(NC(=O)C2CCN(c3nc(-c4ccc(C(C)C)cc4)no3)CC2)cc1`, which AC50 [1] is on record?
**A.** The AC50 was 1 µM [falling, full curve, poor fit].

**Q.** Which AC50 [1] does the source give for `CCCCc1nc2ccccc2n2c(-c3ccc(OC)cc3)c3c(=O)n(C)c(=O)n(C)c3c12` here?
**A.** The AC50 was 39.8 µM [falling, single point].

**Q.** For `Cc1c(C(=O)N2CCC(C)CC2)c(S(=O)(=O)NCc2ccc(Br)cc2)c(C)n1C`, which AC50 [1] is on record?
**A.** Its AC50 is 39.8 µM [falling, single point].

**Q.** For `COc1ccc(CNC(=O)c2cc(-c3cccc(Cl)c3)on2)cc1`, which AC50 [1] is on record?
**A.** The AC50 was 25.1 µM [falling, partial curve].

**Q.** Which AC50 [2] does the source give for `Cc1nc2sccn2c(=O)c1CCN1CCC(=C(c2ccc(F)cc2)c2ccc(F)cc2)CC1` here?
**A.** The AC50 was 25.1 µM [falling, partial curve, poor fit].

**Q.** What about the AC50 [3] of the same compound?
**A.** The AC50 was 25.1 µM [falling, partial curve].

**Q.** Which AC50 [1] does the source give for `O=C(Cc1ccccc1F)Nc1nc(-c2cccs2)cs1` here?
**A.** Its AC50 is 12.6 µM [falling, partial curve].

**Q.** With `Fc1ccc(-c2cc(-c3nc(-c4ccccc4)no3)[nH]n2)cc1` as the compound, how does the AC50 [1] read?
**A.** Its AC50 is 0.0316 µM [falling, full curve].

**Q.** With `CCOC(=O)c1cc(-c2ccc(F)cc2)n(CC(=O)Nc2nccs2)c1C` as the compound, how does the AC50 [1] read?
**A.** The AC50 was 12.6 µM [falling, partial curve].

**Q.** With `Cc1cccc(N2CCN(CCNC(=O)c3cc4c(s3)CS(=O)(=O)C4)CC2)c1C` as the compound, how does the AC50 [1] read?
**A.** The AC50 was 25.1 µM [falling, partial curve].

**Q.** With `COc1ccccc1N1CCN(CCNC(=O)Nc2cccc(C)c2C)CC1` as the compound, how does the AC50 [1] read?
**A.** Its AC50 is 20 µM [falling, partial curve].

**Q.** With `Cc1ccccc1CNC(=O)c1cccc(NC(=O)c2nsc3ccccc23)c1` as the compound, how does the AC50 [1] read?
**A.** Its AC50 is 15.8 µM [falling, partial curve].

**Q.** Which AC50 [1] does the source give for `COc1ccccc1OCC(=O)Nc1nnc(-c2ccco2)s1` here?
**A.** Its AC50 is 10 µM [falling, partial curve].

**Q.** For `COc1ccccc1C1=NS(=O)(=O)N(C)C(C(=O)Nc2cc(OC)c(OC)c(OC)c2)=C1`, which AC50 [1] is on record?
**A.** The AC50 was 1.58 µM [falling, partial curve].
